Source: doi:10.1101/2025.03.14.642698
No constants are given. Whether binding was seen depends on the method and setting. In cells and extracts the contact can be indirect. Binding can be weak; no strength is given. Where a sequence is shown, tags or fusion partners need not be part of it. Each block holds one binder with its values, some of them ahead of it.

Amino acid sequences for entries named in this document (tags omitted). A change or cut given only in a name is not applied to a line headed by its entry.
UniProt P25587: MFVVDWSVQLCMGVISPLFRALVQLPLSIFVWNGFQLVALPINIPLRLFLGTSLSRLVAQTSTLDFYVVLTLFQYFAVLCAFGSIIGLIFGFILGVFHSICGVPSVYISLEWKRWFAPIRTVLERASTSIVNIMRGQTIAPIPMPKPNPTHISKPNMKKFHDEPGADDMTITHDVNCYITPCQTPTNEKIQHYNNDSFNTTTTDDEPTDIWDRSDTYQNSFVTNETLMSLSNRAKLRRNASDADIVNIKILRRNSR

Molecular target: Ldb16 ΔH-FLAG, genomically expressed (S. cerevisiae) (UniProt P25587)
Assay: co-IP

binding: binds
B1: Ldo16-HA, endogenously tagged (protein, UniProt P40219 1-148)
chain: MVSTATFFFFVYLTLFVVIGFFSSLFIIPLLGISFVFAIGVVSFGFCSNMSFKMAQLIYVRADAFLKKVLDKMALQTQPAQLQEPQEPLSTLRPVSNPTIPSPLRQTARPSKFVTEEDVIFEPVSAQSAIARSLETTANKAGNKFQLS

binding: binds
B2: Ldo45-HA, endogenously tagged (protein, UniProt P40218 1-412)
chain: MAARNRRKNNKKKSLLVTSAAQEKNATYVLVAEELHKKTIDLNMGTETPLTENHENPIPAKEFKHQQKLEPIDEHDDGEDELSIKFKSMTKSSGPITEAEVQKLLLSYAFTSAAIQEDENEKESRHYPIKPPSPSASSLSAYFQSFVEKCKQVFYNFSLQTVEKLNALQNSLYEVFWIIFIYLNYWFPNVGDYVSNTFGQQDSIIIRISLSKSHFRALREKSSQKVQQAVKNIYFCFQEKPYLTAFKVSFAIGLVIPCSLLFLIMVSTATFFFFVYLTLFVVIGFFSSLFIIPLLGISFVFAIGVVSFGFCSNMSFKMAQLIYVRADAFLKKVLDKMALQTQPAQLQEPQEPLSTLRPVSNPTIPSPLRQTARPSKFVTEEDVIFEPVSAQSAIARSLETTANKAGNKFQLS
